# Measured values from US20250221997A1, “TYK2 INHIBITOR FORMULATIONS AND METHODS OF MAKING THE SAME” (Takeda Pharmaceutical Company Limited, priority 2022, published 2025).
# At least one structure is not confirmed: it was looked up by name or label, or the drawing left a doubt.
# Assays:
# [1] = ICH photostability studies; type: physicochemical
# [2] = pKa, dissociation constant and pH of saturated aqueous solution; type: physicochemical
# Experimental: The pKa of the protonated form of Compound 1 was determined to be 1.94±0.01. The pH of a saturated aqueous solution of Compound 1 was 8.6.
structure (smiles),measurement,setting,value
CNc1cc(Nc2cccn(-c3ccccn3)c2=O)nc2c(C(=O)N[C@@H]3CC[C@H]3OC)cnn12 [Compound 1],sensitivity to light,[1],not sensitive to light
same,pH of a saturated aqueous solution,[2],8.6
same,dissociation constant Ka,[2]; based on pKa of the protonated form of 1.94,1.15×10^−2
